# Earlier results, collected in patent US20040071685A1, “Compositions and methods for increasing the bioavailability of plant polyphenols” (priority 2002, published 2004).
# Some of these results come from one statement about several compounds together.
# Conditions: adults; for time of peak concentrations after dietary intake: plasma
SMILES,time of peak concentrations after dietary intake [h],time within which most is excreted [h]
O=c1c(-c2ccc(O)cc2)coc2cc(O)ccc12 [daidzein],4 to 8,–
O=c1c(-c2ccc(O)cc2)coc2cc(O)cc(O)c12 [genistein],4 to 8,≤ 24
